“Also recorded” adds a separate entry of the source. At least one compound was matched to its structure with a doubt left.
Columns and labels:
GSC = GSC proliferation; assay type: cell-based
p21/CDKN1A = p21/CDKN1A expression in GSC; assay type: cell-based; details: FIG. 3
NANOG = test: Nuclear expression of NANOG in GICs; details: exposure of GICs to GHB
[1] = tested on: glioma-initiating cells (GICs); test: GSC/GIC clonal proliferation and self-renewal on exposure to GHB

In the case of O=C(O)CCCO [GHB, gamma-hydroxybutyrate], the “proliferation of GSC derived from adult and pediatric high-grade glioma” value (GSC; GSC derived from adult and pediatric high-grade glioma, FIG. 4) is reported as “inhibits”, the GSC proliferation (GSC; GSC, FIG. 2) is reported as “inhibits” and the p21/CDKN1A expression (p21/CDKN1A) is reported as “stimulates; also recorded: increases”. For the same compound, the “nuclear expression of NANOG” value (NANOG) was “down-regulation”, the “GSC clonal and self-renewal properties” value ([1]; GSC, FIG. 1) was “inhibits” and the GSC clonal proliferation ([1]; exposure of GICs to GHB) was “inhibition of GSC clonal proliferation”. For the same compound, the “clonal proliferation and self-renewal markers” value ([1]; exposure of GICs to GHB) was “loss of clonal proliferation and self-renewal markers” and the self-renewal ([1]; exposure of GICs to GHB) was “loss of self-renewal”.

Reference: US20160143867A1, “METHODS AND PHARMACEUTICAL COMPOSITIONS FOR TREATING CANCER” (INSERM (INSTITUT NATIONAL DE LA SANTÉ ET DE LA RECHERCHE …, priority 2013, published 2016)
